# According to PMC9016900:
# No constants are given. Whether binding was seen depends on the method and setting. In cells and extracts the contact can be indirect. Binding can be weak; no strength is given. Sequences can lack the tags named with a protein.
# Target: T1, Nuclear factor erythroid 2-related factor 2 (Nrf2), human, split-ubiquitin fusion (human) (UniProt Q16236)
# T1 sequence: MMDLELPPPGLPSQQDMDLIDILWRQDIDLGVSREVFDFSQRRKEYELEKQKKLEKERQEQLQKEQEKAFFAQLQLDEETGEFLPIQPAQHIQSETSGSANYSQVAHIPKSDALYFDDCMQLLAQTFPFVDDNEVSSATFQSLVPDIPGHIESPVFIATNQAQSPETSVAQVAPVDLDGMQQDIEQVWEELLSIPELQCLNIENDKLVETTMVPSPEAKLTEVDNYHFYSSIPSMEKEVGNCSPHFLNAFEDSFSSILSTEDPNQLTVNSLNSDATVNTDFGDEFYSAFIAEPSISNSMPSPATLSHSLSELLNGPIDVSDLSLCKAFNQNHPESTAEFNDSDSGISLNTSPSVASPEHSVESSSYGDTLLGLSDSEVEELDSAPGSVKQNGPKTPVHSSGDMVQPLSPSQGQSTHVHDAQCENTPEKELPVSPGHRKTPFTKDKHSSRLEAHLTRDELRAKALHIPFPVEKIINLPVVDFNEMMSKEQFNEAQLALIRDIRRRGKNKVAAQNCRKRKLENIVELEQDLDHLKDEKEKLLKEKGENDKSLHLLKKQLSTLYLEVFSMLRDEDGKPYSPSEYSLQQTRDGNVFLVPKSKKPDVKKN
# Assay: split reporter; yeast split-ubiquitin system: Nub (NuI, NuA, NuG) and Cub-RUra3p (CRU) fusions co-expressed in yeast; interaction = no growth on uracil- media and growth on 5FOA media; 5x serial dilutions spotted on selective agar plates
substance,measurement,value
"Hsp90, split-ubiquitin fusion",binding,binds
